Test: Color deposition/rejuvenation (ΔE) on hair swatches soaked in SLES, dye and ionic liquid
Details: 6% SLES

Compound: CCn1cc[n+](CC)c1 [EEIM OAc, 1,3-Ethyl Imidazolium Acetate]
- ΔE (color deposition) (Basic Orange 31 0.005%, with vs without 10% EEIM OAc, 10 minutes, FIG. 5, higher ΔE = more deposition): the ΔE value significantly increases
- ΔE (color deposition) (Basic Red 51 0.005%, with vs without ionic liquid, FIG. 6): ΔE values significantly increase
- ΔE (color deposition) (Basic Yellow 87 0.005%, with vs without ionic liquid, FIG. 7): ΔE increases
